The record followed here is the supplement of paper PMC4807443.

Counter-ions that a name gives are not always drawn. The list shows a part of the results. The numbers are fractions of the control, whatever unit the source prints. Most entries show no effect beyond the scatter of the controls.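 A lentiviral reporter stably expressed in MIN6 mouse insulinoma beta cells uses Pdx1 and Ins1 promoters to drive separate nucleus-targeted fluorescent proteins; automated imaging with Hoechst nuclear stain counted cells. Possible hits were drugs shifting Ins1 promoter signal more than two median absolute deviations from DMSO controls, with Pdx1 activity roughly normal.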

The subject of the experiment is MIN6. Put plainly: % Pdx1+ Ins1+ (double-positive, mature) cells relative to DMSO control (fold of DMSO control); higher = more mature Ins1 promoter-active cells. The conditions noted are these: 8.5 µM; 48 h; glucose 5 mM.
For `CC(C)(C)NCC(O)COc1cccc2c1CC(O)C(O)C2` (configuration not stated) [Nadolol], the “% Pdx1+ Ins1+” value was determined as 1.13.

As to `CC1=C(C(=O)O)N2C(=O)[C@@H](NC(=O)[C@H](N)c3ccccc3)[C@H]2SC1` [Cephalexin monohydrate], the “% Pdx1+ Ins1+” value was 0.934.

In the case of `COc1ccc2c(c1)c(CC(=O)OCC(=O)O)c(C)n2C(=O)c1ccc(Cl)cc1` [Acemetacin], the “% Pdx1+ Ins1+” value was 1.08.

Turning to `Cc1nccn1CC1CCc2c(c3ccccc3n2C)C1=O` (configuration not stated) [Ondansetron Hydrochloride], the “% Pdx1+ Ins1+” value was determined as 0.99.

In the case of `NC(=O)c1cc[n+](CC2=C(C(=O)[O-])N3C(=O)[C@@H](NC(=O)Cc4cccs4)[C@H]3SC2)cc1` [Cefalonium], the “% Pdx1+ Ins1+” value came out at 0.913.

Regarding `O=C1C(O)=C(O)C(=O)C(O)=C1O` [Tetrahydroxy-1,4-quinone monohydrate], the “% Pdx1+ Ins1+” value amounted to 0.984.

Consider `COc1ccc2cc3[n+](cc2c1OC)CCc1cc2c(cc1-3)OCO2` [Berberine chloride], for which the “% Pdx1+ Ins1+” value was found to be 0.482.

Regarding `COc1cc(NS(=O)(=O)c2ccc(N)cc2)nc(OC)n1` [Sulfadimethoxine], the “% Pdx1+ Ins1+” value was found to be 1.02.

Turning to `CC[N+](CC)(CC(=O)Nc1c(C)cccc1C)Cc1ccccc1` [Denatonium benzoate], the “% Pdx1+ Ins1+” value worked out at 1.05.

For the compound `C=N[C@@H](C(=O)N[C@@H]1C(=O)N2[C@@H]1SC(C)(C)[C@@H]2C(=O)O)c1ccccc1` [Metampicillin sodium salt], the “% Pdx1+ Ins1+” value worked out at 1.13.

As for `COc1cc2ccc(=O)oc2cc1O` [Scopoletin], the “% Pdx1+ Ins1+” value was 0.86.

With `NCCC(=O)NCCc1c[nH]cn1` [Carcinine], the “% Pdx1+ Ins1+” value was determined as 1.07.

Regarding `Cc1cccc(Nc2ccncc2S(=O)(=O)NC(=O)NC(C)C)c1` [Torsemide], the “% Pdx1+ Ins1+” value was 0.945.

`CC(C)NC(=N)NC(=N)Nc1ccc(Cl)cc1` [Proguanil hydrochloride]: the “% Pdx1+ Ins1+” value was 0.214.

Regarding `Cc1nnc(SCC2=C(C(=O)O)N3C(=O)[C@@H](NC(=O)Cn4cnnn4)[C@H]3SC2)s1` [Cefazolin sodium salt], the “% Pdx1+ Ins1+” value was 0.968.

Turning to `O=c1[nH]c(=O)n([C@H]2C[C@H](O)[C@@H](CO)O2)cc1C(F)(F)F` [Trifluridine], the “% Pdx1+ Ins1+” value is 0.521.

As to `COc1ccc2c3c1O[C@H]1C[C@@H](O)C=C[C@@]31CCN(C)C2` [Galanthamine hydrobromide], the “% Pdx1+ Ins1+” value is 0.828.

For the compound `CCCCCCCCNC(C)C(O)c1ccc(SC(C)C)cc1` (configuration not stated) [Suloctidil], the “% Pdx1+ Ins1+” value was 0.976.

For the compound `CC(=O)CC(c1ccc([N+](=O)[O-])cc1)c1c(O)c2ccccc2oc1=O` (configuration not stated) [Acenocoumarol], the “% Pdx1+ Ins1+” value turned out to be 1.04.

With `O=C(CCCN1CCC(O)(c2ccc(Cl)cc2)CC1)c1ccc(F)cc1` [Haloperidol], the “% Pdx1+ Ins1+” value amounted to 0.948.

As for `Cc1ccc(C)c(OCCCC(C)(C)C(=O)O)c1` [Gemfibrozil], the “% Pdx1+ Ins1+” value amounted to 1.01.

For `NC(=O)c1ccc[n+]([C@@H]2O[C@H](COP(=O)([O-])OP(=O)(O)OC[C@H]3O[C@@H](n4cnc5c(N)ncnc54)[C@H](O)[C@@H]3O)[C@@H](O)[C@H]2O)c1` [Nadide], the “% Pdx1+ Ins1+” value came to 0.861.
